Among the data in paper PMC10703885 (Cell Death & Disease, 2023) are downregulated genes and upregulated genes values, retold here.

The data set relates to HCT116 cells. Description: RNA sequencing analysis (differentially expressed genes). Type of data set: cell-based. The note with it: HCT116, 24 h, RNA-Seq, vs DMSO.

The amount applied is not stated for every result.

`COc1ccc(N(Cc2nc(-c3ccccc3Cl)cs2)C(=O)CCCCCC(=O)NO)cc1` [HR488B]: the downregulated genes was determined as 2246 and the upregulated genes stood at 3105.
